# Some results were stated once for a whole list of compounds, not compound by compound.
# Experiment: Static and dynamic light scattering (SLS/DLS) of block co-polypeptides
# Assay type: physicochemical
# Experimental: Key parameters of interest are the hydrophilicity of the corona-forming block, the hydrophilicity of the core block, the overall length of the co-polypeptide and the ratio of the two blocks. Parameters of evaluation are the size, morphology, stability, and thermoresponsive behavior. All measurements were made in 140 mM NaCl, 10 mM phosphate buffer, 3 mM KCl, pH 7.4 unless otherwise specified. Size was evaluated by the hydrodynamic radios (Rh) and radius of gyration (Rg) by dynamic light scattering (DLS) and static light scattering (SLS) respectively. Rg and Rh can be combined to yield the shape factor ρ=Rg/Rh, which provides a rough indication of the morphology of the scatterer. […] For an elongated scatterer, the shape factor depends upon the aspect ratio. A combination of temperature dependent turbidity and DLS was utilized to determine the phase behavior of the block co-polypeptides. Cryogenic transmission electron microscopy (Cryo-TEM) was utilized to evaluate the morphology and provide crucial insight into the hydration of the core/corona chains. Stability of the assembled nanostructure was determined by a shift in the I1/I3 fluorescent bands of pyrene as described previously.
# Static and dynamic light scattering measurements (SLS/DLS) were performed using an ALV/CGS-3 goniometer system (Langen, Germany). Samples for the ALV/CGS-3 goniometer system were prepared at a concentration of 10 μM in PBS and filtered through 0.45 μm Millex-GV filters into a 10 mm disposable borosilicate glass tube (Fischer). Simultaneous SLS and DLS measurements were obtained at 15° C. of the ELP for angles between 30°-150° at 5° increments, with each angle consisting of 3 runs for 15 s. SLS experiments were only conducted for self-assembling block co-polypeptides, since the molecular weight of a single block co-polypeptide chain is already known, and the Rg of a single chain is likely near or below the detection limit of the SLS instrument. The differential refractive index (dn/dc) was determined by measuring the refractive index at different concentrations using an Abbemat 500 refractometer (Anton Paar, Graz, Austria). DLS data were analyzed by fitting the autocorrelation function with a cumulant fit, using the built-in ALV software. Hydrodynamic radius (Rh) was plotted against angle and extrapolated to zero. SLS data were analyzed by partial Zimm plots using ALVSTAT software in order to determine the Rg and molecular weight (MW).
Molecule,aggregation number (Nagg),hydrodynamic radius (Rh),radius of gyration (Rg),shape factor / form factor (Rg/Rh)
RLP40-ELP80: RLP-ELP block co-polypeptide forming spherical micelles (protein) QYPSDGRGQYPSDGRGQYPSDGRGQYPSDGRGQYPSDGRGQYPSDGRGQYPSDGRGQYPSDGRGQYPSDGRGQYPSDGRGQYPSDGRGQYPSDGRGQYPSDGRGQYPSDGRGQYPSDGRGQYPSDGRGQYPSDGRGQYPSDGRGQYPSDGRGQYPSDGRGQYPSDGRGQYPSDGRGQYPSDGRGQYPSDGRGQYPSDGRGQYPSDGRGQYPSDGRGQYPSDGRGQYPSDGRGQYPSDGRGQYPSDGRGQYPSDGRGQYPSDGRGQYPSDGRGQYPSDGRGQYPSDGRGQYPSDGRGQYPSDGRGQYPSDGRGQYPSDGRGGAGVPGGGVPGAGVPGGGVPGAGVPGGGVPGAGVPGGGVPGAGVPGGGVPGAGVPGGGVPGAGVPGGGVPGAGVPGGGVPGAGVPGGGVPGAGVPGGGVPGAGVPGGGVPGAGVPGGGVPGAGVPGGGVPGAGVPGGGVPGAGVPGGGVPGAGVPGGGVPGAGVPGGGVPGAGVPGGGVPGAGVPGGGVPGAGVPGGGVPGAGVPGGGVPGAGVPGGGVPGAGVPGGGVPGAGVPGGGVPGAGVPGGGVPGAGVPGGGVPGAGVPGGGVPGAGVPGGGVPGAGVPGGGVPGAGVPGGGVPGAGVPGGGVPGAGVPGGGVPGAGVPGGGVPGAGVPGGGVPGAGVPGGGVPGAGVPGGGVPGAGVPGGGVPGAGVPGGGVPGAGVPGGGVPGAGVPGGGVPGAGVPGGGVPGAGVPGGGVPGAGVPGGGVPGAGVPGGGVPGAGVPGGGVPGAGVPGGGVPGAGVPGGGVPGAGVPGGGVPGAGVPGGGVPGAGVPGGGVPGAGVPGGGVPGAGVPGGGVPGAGVPGGGVPGAGVPGGGVPGAGVPGGGVPGAGVPGGGVPGAGVPGGGVPGAGVPGGGVPGAGVPGGGVPGAGVPGGGVPGAGVPGGGVPGAGVPGGGVPGAGVPGGGVPGAGVPGGGVPGAGVPGGGVPGAGVPGGGVPGAGVPGGGVPGAGVPGGGVPGAGVPGGGVPGAGVPGGGVPGAGVPGGGVPGAGVPGGGVPGAGVPGGGVPGAGVPGGGVPGAGVPGGGVPGAGVPGGGVPGAGVPGGGVPGAGVPGGGVPGAGVPGGGVPGAGVPGGGVP,under 250,less than 50 nm,less than 40 nm,below 1
"RLP60-ELP80: RLP-ELP block co-polypeptide, 60 core and 80 corona repeats (protein) QYPSDGRGQYPSDGRGQYPSDGRGQYPSDGRGQYPSDGRGQYPSDGRGQYPSDGRGQYPSDGRGQYPSDGRGQYPSDGRGQYPSDGRGQYPSDGRGQYPSDGRGQYPSDGRGQYPSDGRGQYPSDGRGQYPSDGRGQYPSDGRGQYPSDGRGQYPSDGRGQYPSDGRGQYPSDGRGQYPSDGRGQYPSDGRGQYPSDGRGQYPSDGRGQYPSDGRGQYPSDGRGQYPSDGRGQYPSDGRGQYPSDGRGQYPSDGRGQYPSDGRGQYPSDGRGQYPSDGRGQYPSDGRGQYPSDGRGQYPSDGRGQYPSDGRGQYPSDGRGQYPSDGRGQYPSDGRGQYPSDGRGQYPSDGRGQYPSDGRGQYPSDGRGQYPSDGRGQYPSDGRGQYPSDGRGQYPSDGRGQYPSDGRGQYPSDGRGQYPSDGRGQYPSDGRGQYPSDGRGQYPSDGRGQYPSDGRGQYPSDGRGQYPSDGRGQYPSDGRGGAGVPGGGVPGAGVPGGGVPGAGVPGGGVPGAGVPGGGVPGAGVPGGGVPGAGVPGGGVPGAGVPGGGVPGAGVPGGGVPGAGVPGGGVPGAGVPGGGVPGAGVPGGGVPGAGVPGGGVPGAGVPGGGVPGAGVPGGGVPGAGVPGGGVPGAGVPGGGVPGAGVPGGGVPGAGVPGGGVPGAGVPGGGVPGAGVPGGGVPGAGVPGGGVPGAGVPGGGVPGAGVPGGGVPGAGVPGGGVPGAGVPGGGVPGAGVPGGGVPGAGVPGGGVPGAGVPGGGVPGAGVPGGGVPGAGVPGGGVPGAGVPGGGVPGAGVPGGGVPGAGVPGGGVPGAGVPGGGVPGAGVPGGGVPGAGVPGGGVPGAGVPGGGVPGAGVPGGGVPGAGVPGGGVPGAGVPGGGVP",under 250,less than 50 nm,less than 40 nm,below 1

# — patent US20230093708A1, “PROTEIN NANOPARTICLE DESIGN AND APPLICATION” (Duke University, priority 2020, published 2023)
